Assay results as given in article PMC7242444.

Chains of the proteins cited; added tags and fusions are not shown. Residues count along the entry.
UniProt Q5VZL5, residues 33-1548: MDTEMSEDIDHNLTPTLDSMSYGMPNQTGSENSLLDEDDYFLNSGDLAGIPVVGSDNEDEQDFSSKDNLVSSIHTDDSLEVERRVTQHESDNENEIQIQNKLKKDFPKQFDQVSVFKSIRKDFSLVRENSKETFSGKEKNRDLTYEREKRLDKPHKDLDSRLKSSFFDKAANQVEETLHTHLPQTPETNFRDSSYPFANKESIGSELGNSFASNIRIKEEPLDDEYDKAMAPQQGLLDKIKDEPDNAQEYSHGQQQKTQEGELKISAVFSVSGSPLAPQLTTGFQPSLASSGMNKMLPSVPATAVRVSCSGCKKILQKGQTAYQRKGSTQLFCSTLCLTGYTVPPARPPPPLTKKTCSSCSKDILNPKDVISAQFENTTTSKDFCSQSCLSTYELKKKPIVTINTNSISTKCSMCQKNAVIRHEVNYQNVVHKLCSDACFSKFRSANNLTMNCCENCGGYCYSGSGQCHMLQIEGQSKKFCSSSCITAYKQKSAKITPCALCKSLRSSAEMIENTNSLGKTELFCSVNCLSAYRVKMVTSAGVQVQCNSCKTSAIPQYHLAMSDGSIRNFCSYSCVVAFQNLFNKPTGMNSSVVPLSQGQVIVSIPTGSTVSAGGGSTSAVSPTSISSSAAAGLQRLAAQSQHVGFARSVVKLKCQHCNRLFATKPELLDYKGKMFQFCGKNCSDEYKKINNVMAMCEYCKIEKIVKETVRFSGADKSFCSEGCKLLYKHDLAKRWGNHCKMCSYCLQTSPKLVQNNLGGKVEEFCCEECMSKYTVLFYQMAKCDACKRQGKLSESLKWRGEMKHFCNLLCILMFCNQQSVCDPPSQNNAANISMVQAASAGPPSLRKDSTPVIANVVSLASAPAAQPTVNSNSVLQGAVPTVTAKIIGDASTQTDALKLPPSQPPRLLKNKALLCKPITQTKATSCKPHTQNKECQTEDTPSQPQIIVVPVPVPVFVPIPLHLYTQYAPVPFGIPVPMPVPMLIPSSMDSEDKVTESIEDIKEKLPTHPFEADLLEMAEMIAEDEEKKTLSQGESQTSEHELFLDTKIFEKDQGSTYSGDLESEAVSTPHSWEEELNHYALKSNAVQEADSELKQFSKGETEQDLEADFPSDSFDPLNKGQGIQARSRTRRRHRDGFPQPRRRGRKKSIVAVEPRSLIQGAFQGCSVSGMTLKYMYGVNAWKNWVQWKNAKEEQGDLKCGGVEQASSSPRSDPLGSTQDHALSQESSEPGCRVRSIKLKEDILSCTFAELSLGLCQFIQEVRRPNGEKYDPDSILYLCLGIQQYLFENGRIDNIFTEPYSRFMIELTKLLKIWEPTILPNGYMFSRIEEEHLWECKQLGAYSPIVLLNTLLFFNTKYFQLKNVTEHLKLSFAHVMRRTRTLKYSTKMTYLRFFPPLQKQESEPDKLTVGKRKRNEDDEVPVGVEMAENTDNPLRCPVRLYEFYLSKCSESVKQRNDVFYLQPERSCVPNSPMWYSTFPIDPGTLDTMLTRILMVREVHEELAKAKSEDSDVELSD
UniProt P10244: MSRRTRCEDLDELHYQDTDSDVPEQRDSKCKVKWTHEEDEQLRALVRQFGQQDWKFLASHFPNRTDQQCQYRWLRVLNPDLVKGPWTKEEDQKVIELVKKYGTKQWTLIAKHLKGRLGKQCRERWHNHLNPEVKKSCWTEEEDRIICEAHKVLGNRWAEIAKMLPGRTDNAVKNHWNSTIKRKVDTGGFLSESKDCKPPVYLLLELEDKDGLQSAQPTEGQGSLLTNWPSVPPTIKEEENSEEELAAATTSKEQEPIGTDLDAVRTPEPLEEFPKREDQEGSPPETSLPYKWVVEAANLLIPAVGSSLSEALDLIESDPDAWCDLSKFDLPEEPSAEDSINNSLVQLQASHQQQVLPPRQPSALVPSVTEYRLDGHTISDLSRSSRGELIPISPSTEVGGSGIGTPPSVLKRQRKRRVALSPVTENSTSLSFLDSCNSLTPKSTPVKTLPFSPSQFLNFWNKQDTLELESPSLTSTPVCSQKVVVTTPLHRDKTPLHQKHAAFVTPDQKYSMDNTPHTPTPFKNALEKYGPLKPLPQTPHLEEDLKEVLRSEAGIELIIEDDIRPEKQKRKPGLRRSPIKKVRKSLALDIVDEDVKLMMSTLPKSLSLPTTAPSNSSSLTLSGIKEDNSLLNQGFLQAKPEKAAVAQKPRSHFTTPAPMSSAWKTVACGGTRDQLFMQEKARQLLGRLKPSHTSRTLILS

What was measured:
GFP-ZMYM4 (human) = GFP-ZMYM4 (human) (UniProt Q5VZL5); test: affinity purification with mass spectrometry; extracts (ELB buffer, 120 mM NaCl, 0.2% NP-40) of HEK293T cells stably expressing the GFP fusion bait bound to magnetic GFP-trap beads; on-bead trypsin digestion, LC-MS/MS; cells expressing only GFP as control; three independent experiments
GFP-B-MYB (human) = GFP-B-MYB (human) (UniProt P10244); test: as above

Row | Binder | binding (GFP-ZMYM4 (human)) | binding (GFP-B-MYB (human))
1 | ZMYM2, endogenous (protein, UniProt Q9UBW7 1-1377) MDTSSVGGLELTDQTPVLLGSTAMATSLTNVGNSFSGPANPLVSRSNKFQNSSVEDDDDVVFIEPVQPPPPSVPVVADQRTITFTSSKNEELQGNDSKITPSSKELASQKGSVSETIVIDDEEDMETNQGQEKNSSNFIERRPPETKNRTNDVDFSTSSFSRSKVNAGMGNSGITTEPDSEIQIANVTTLETGVSSVNDGQLENTDGRDMNLMITHVTSLQNTNLGDVSNGLQSSNFGVNIQTYTPSLTSQTKTGVGPFNPGRMNVAGDVFQNGESATHHNPDSWISQSASFPRNQKQPGVDSLSPVASLPKQIFQPSVQQQPTKPVKVTCANCKKPLQKGQTAYQRKGSAHLFCSTTCLSSFSHKPAPKKLCVMCKKDITTMKGTIVAQVDSSESFQEFCSTSCLSLYEDKQNPTKGALNKSRCTICGKLTEIRHEVSFKNMTHKLCSDHCFNRYRMANGLIMNCCEQCGEYLPSKGAGNNVLVIDGQQKRFCCQSCVSEYKQVGSHPSFLKEVRDHMQDSFLMQPEKYGKLTTCTGCRTQCRFFDMTQCIGPNGYMEPYCSTACMNSHKTKYAKSQSLGIICHFCKRNSLPQYQATMPDGKLYNFCNSSCVAKFQALSMQSSPNGQFVAPSDIQLKCNYCKNSFCSKPEILEWENKVHQFCSKTCSDDYKKLHCIVTYCEYCQEEKTLHETVNFSGVKRPFCSEGCKLLYKQDFARRLGLRCVTCNYCSQLCKKGATKELDGVVRDFCSEDCCKKFQDWYYKAARCDCCKSQGTLKERVQWRGEMKHFCDQHCLLRFYCQQNEPNMTTQKGPENLHYDQGCQTSRTKMTGSAPPPSPTPNKEMKNKAVLCKPLTMTKATYCKPHMQTKSCQTDDTWRTEYVPVPIPVPVYIPVPMHMYSQNIPVPTTVPVPVPVPVFLPAPLDSSEKIPAAIEELKSKVSSDALDTELLTMTDMMSEDEGKTETTNINSVIIETDIIGSDLLKNSDPETQSSMPDVPYEPDLDIEIDFPRAAEELDMENEFLLPPVFGEEYEEQPRPRSKKKGAKRKAVSGYQSHDDSSDNSECSFPFKYTYGVNAWKHWVKTRQLDEDLLVLDELKSSKSVKLKEDLLSHTTAELNYGLAHFVNEIRRPNGENYAPDSIYYLCLGIQEYLCGSNRKDNIFIDPGYQTFEQELNKILRSWQPSILPDGSIFSRVEEDYLWRIKQLGSHSPVALLNTLFYFNTKYFGLKTVEQHLRLSFGTVFRHWKKNPLTMENKACLRYQVSSLCGTDNEDKITTGKRKHEDDEPVFEQIENTANPSRCPVKMFECYLSKSPQNLNQRMDVFYLQPECSSSTDSPVWYTSTSLDRNTLENMLVRVLLVKDIYDKDNYELDEDTD | binds | –
2 | P5CS (delta-1-pyrroline-5-carboxylate synthase), endogenous (protein, UniProt P54886 1-795) MLSQVYRCGFQPFNQHLLPWVKCTTVFRSHCIQPSVIRHVRSWSNIPFITVPLSRTHGKSFAHRSELKHAKRIVVKLGSAVVTRGDECGLALGRLASIVEQVSVLQNQGREMMLVTSGAVAFGKQRLRHEILLSQSVRQALHSGQNQLKEMAIPVLEARACAAAGQSGLMALYEAMFTQYSICAAQILVTNLDFHDEQKRRNLNGTLHELLRMNIVPIVNTNDAVVPPAEPNSDLQGVNVISVKDNDSLAARLAVEMKTDLLIVLSDVEGLFDSPPGSDDAKLIDIFYPGDQQSVTFGTKSRVGMGGMEAKVKAALWALQGGTSVVIANGTHPKVSGHVITDIVEGKKVGTFFSEVKPAGPTVEQQGEMARSGGRMLATLEPEQRAEIIHHLADLLTDQRDEILLANKKDLEEAEGRLAAPLLKRLSLSTSKLNSLAIGLRQIAASSQDSVGRVLRRTRIAKNLELEQVTVPIGVLLVIFESRPDCLPQVAALAIASGNGLLLKGGKEAAHSNRILHLLTQEALSIHGVKEAVQLVNTREEVEDLCRLDKMIDLIIPRGSSQLVRDIQKAAKGIPVMGHSEGICHMYVDSEASVDKVTRLVRDSKCEYPAACNALETLLIHRDLLRTPLFDQIIDMLRVEQVKIHAGPKFASYLTFSPSEVKSLRTEYGDLELCIEVVDNVQDAIDHIHKYGSSHTDVIVTEDENTAEFFLQHVDSACVFWNASTRFSDGYRFGLGAEVGISTSRIHARGPVGLEGLLTTKWLLRGKDHVVSDFSEHGSLKYLHENLPIPQRNTN | – | no binding

No constants are given. Whether binding was seen depends on the method and setting. Binding seen in cells or lysates may run through a third protein. These calls come from enrichment with a bait or labelling near it, and not all partners need be listed. For some assays here: No binding means not detected with the bait.
